PubChem BioAssay AID1347076 (National Center for Advancing Translational Sciences (NCATS), 2019)
The whole screen tested about 400,000 compounds, of which about 13,000 (3.2%) were called active. Inconclusive means that the source gave no clear call. Such entries were picked first, then a sample of the others. Calls follow the shape of the dose curve; as a rule, active = well fitted cell-killing curve with a large enough effect; inconclusive = small, poorly fitted or top-dose-only effect, or effect the other way; inactive = flat fitted curve, though single readings scatter. Where the call is inconclusive, the potency comes from a doubtful curve fit.

Assay: qHTS assay for MDR1-selective chemotherapeutics: Primary screen using the drug-selected MDR subline cells KB-V1; also: nearly all actives have a fitted effect of over 60% in size
Conditions: KB-V1 MDR cells viability, CellTiter-Glo, 72 h; activity change, negative = cytotoxicity: at 46.1 µM (top of the series)
Summary of the method: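 Cytotoxicity toward P-gp-expressing KB-V1 cells was determined as loss of CellTiter-Glo luminescence after 72 h at 37 degrees C. Compounds were tested in quantitative HTS format across a concentration range, with curves fitted to normalized data.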
% is scaled to controls: 0 for no effect and ±100 for the full control effect; potency is read from the fitted curve at half-maximal effect.

SMILES | Potency | activity change, negative = cytotoxicity
CCN(CC)C(=O)CSc1nc2c(sc(=S)n2-c2ccccc2)c(=O)n1Cc1ccco1 | inconclusive: 18.4 µM [cytotoxic, partial curve, poor fit] | –
O=C(Nc1cccc(Cl)c1)c1ccc2nc(CCc3ccccc3)oc2c1 | inconclusive: 23.1 µM [cytotoxic, single point] | –
CCC(=O)N1CCc2cc(Br)cc(S(=O)(=O)N3CCC(C(=O)Nc4ccccc4CC)CC3)c21 | – | inactive: 2.58%
COc1ccc(C2=CCC3CCCCN3C2)cc1OC (stereo not given) | – | inactive: -7.59%
CCC1CCCCN1C(=O)CSc1nnc(-c2cccs2)o1 (stereo not given) | inconclusive: 7.31 µM [cytotoxic, partial curve] | –
Cc1ccc(-c2nc3cc(Cl)ccc3o2)cc1NC(=O)c1cc([N+](=O)[O-])ccc1N1CCOCC1 | – | inactive: -11.9%
Cc1cccc(Oc2coc3cc(OC(=O)c4cc5ccccc5oc4=O)ccc3c2=O)c1 | inconclusive: 23.1 µM [rising, partial curve] | –
Cc1ccc(S(=O)(=O)N2CCN(C(=O)C3CCN(C(=O)c4ccccc4C)CC3)CC2)cc1C | inconclusive: 18.4 µM [cytotoxic, single point] | –
CN(C)/C=C(\C#N)C(N)=C(C#N)C#N | inconclusive: 29.1 µM [rising, partial curve, poor fit] | –
CCc1cc(C(=O)c2ccc(OC)cc2)c(NC(=O)CN2CCCCC2)s1 | inconclusive: 11.6 µM [cytotoxic, partial curve] | –
COCCn1c(-c2ccc3ccccc3c2)nc2c1c(=O)[nH]c(=O)n2CC(C)C | – | inactive: -26.3%
O=C(Nc1ccncc1)c1ccc(Br)cc1 | inconclusive: 20.6 µM [cytotoxic, single point] | –
CCc1ccc2nc(Nc3ccc(OC)cc3OC)c(C#N)cc2c1 | – | inactive: -3.63%
COc1cc(/C=C/C(=O)OC(C)C(=O)NC2CCCCC2C)cc(Cl)c1OC (stereo not given) | – | inactive: -1.7%
CC(C)Oc1ccc(CNC(=O)C2CCN(c3nc4ccccc4nc3C(F)(F)F)CC2)cc1 | inconclusive: 23.1 µM [cytotoxic, single point] | –
CCn1cc(Cl)c(C(=O)N2N=C(c3ccc4ccccc4c3)CC2c2ccccc2O)n1 (stereo not given) | inconclusive: 16.4 µM [cytotoxic, partial curve, poor fit] | –
Cc1ccc(S(=O)(=O)N2CCOCC2)cc1C(=O)NC(=S)N(Cc1ccccc1)C(C)C | active: 11.6 µM | –
CSc1nc2ccc3nc(NC(=O)c4ccc(C)cc4)sc3c2s1 | – | inactive: -14.1%
CC1(C)C(C=C(Cl)Cl)C1C(=O)N(Cc1cccc(Cl)c1)C1CCS(=O)(=O)C1 (stereo not given) | inconclusive: 13 µM [cytotoxic, partial curve] | –
N#Cc1cc(C(=O)c2ccccc2OCC(=O)Nc2ccccc2Cl)cn(C2CCCCC2)c1=O | – | inactive: -0.414%
N#C/C(=C/c1ccc(Sc2nc3ccccc3[nH]2)o1)c1cccc(Br)c1 | active: 18.4 µM | –
CCN(CC(=O)Nc1c(F)cccc1F)C(=O)c1ccc(S(=O)(=O)N2CCC(C)CC2)cc1 | active: 20.6 µM | –
CCOc1ccc2nc(NC(=O)C3CCCN(S(=O)(=O)c4c(C)noc4C)C3)sc2c1 (stereo not given) | inconclusive: 13 µM [cytotoxic, partial curve] | –
COn1c2c(c3c4nonc4ccc31)CCCC2 | active: 18.4 µM | –

An excerpt from further up, as a working copy:
SMILES | Potency | activity change, negative = cytotoxicity
CCc1ccc2nc(Nc3ccc(OC)cc3OC)c(C#N)cc2c1 | – | inactive: -3.63%
COc1cc(/C=C/C(=O)OC(C)C(=O)NC2CCCCC2C)cc(Cl)c1OC (stereo not given) | – | inactive: -1.7%

Reformatted with tabs: 2 of the compounds above.
SMILES	Potency	activity change, negative = cytotoxicity
Cc1cccc(Oc2coc3cc(OC(=O)c4cc5ccccc5oc4=O)ccc3c2=O)c1	inconclusive: 23.1 µM [rising, partial curve]	–
Cc1ccc(S(=O)(=O)N2CCN(C(=O)C3CCN(C(=O)c4ccccc4C)CC3)CC2)cc1C	inconclusive: 18.4 µM [cytotoxic, single point]	–

Additional compounds follow:

SMILES | Potency | activity change, negative = cytotoxicity
CNC(=S)N/N=C(\C)c1ccc2c(c1)OCCO2 | inconclusive: 29.1 µM [cytotoxic, single point] | –
Cc1cc(C)nc(/N=C(\N)Nc2cccc(OCc3ccccc3)c2)n1 | active: 5.8 µM | –
Cc1ccc(N(c2ncnc(N)c2[N+](=O)[O-])C2CCCCC2)cc1 | inconclusive: 20.6 µM [cytotoxic, partial curve, poor fit] | –
CCOC(=O)N1CCN(C(=O)C2CCN(CC3CCCCC3)CC2)CC1 | inconclusive: 23.1 µM [cytotoxic, partial curve, poor fit] | –
C=CS(=O)(=O)c1ccc(Oc2ccc(S(=O)(=O)C=C)cc2)cc1 | inconclusive: 4.11 µM [cytotoxic, full curve, poor fit] | –
O=C(Nc1ccccc1Cl)OCC#CCOC(=O)Nc1ccccc1Cl | – | inactive: 6.69%
O=C1c2cccc(OCC(=O)N3CCCc4ccccc43)c2CCN1Cc1ccc(Br)cc1 | active: 18.4 µM | –
CC1(C(=O)O)CCC2(C)CCC3(C)C(=CC(=O)C4C5(C)CCC(=O)C(C)(C)C5CCC43C)C2C1 (stereo not given) | – | inactive: 3.01%
Cc1nc2ccccn2c1C(=O)N/N=C/c1ccc2c(c1)OCO2 | active: 18.4 µM | –
CCc1c(C)sc(NC(=O)CSc2nc3c(c(C(F)(F)F)n2)CCc2ccccc2-3)c1C#N | inconclusive: 25.9 µM [cytotoxic, single point] | –
CC(=O)Nc1ccc(NS(=O)(=O)c2cc(-c3cnc(C4CC4)o3)ccc2C)cc1 | inconclusive: 0.0206 µM [cytotoxic, full curve] | –
C[C@]12CCC3C(CC[C@H]4CCCC[C@]34C)C1CC[C@@]2(O)CNCCO (stereo not given in full) | inconclusive: 20.6 µM [rising, partial curve, poor fit] | –
Cc1cccc(NC(=O)c2ccc(Cn3cc(C(F)(F)F)ccc3=O)cc2)c1 | active: 16.4 µM | –
CCOc1cc(C(=O)OCc2ccc([N+](=O)[O-])cc2)ccc1OCC(=O)N1CCOCC1 | inconclusive: 5.8 µM [cytotoxic, full curve, poor fit] | –
O=C(O)Cn1nnnc1SCC(=O)Nc1ccccc1F | inconclusive: 23.1 µM [rising, single point] | –
COc1ccccc1Nc1sc(C(=O)c2ccc3c(c2)OCO3)c(N)c1S(=O)(=O)c1ccccc1 | inconclusive: 14.6 µM [cytotoxic, partial curve, poor fit] | –
CSc1nc(C)c2c(n1)N(c1ccc(O)cc1)CC2 | inconclusive: 29.1 µM [cytotoxic, single point] | –
Cc1ccc(C2=Nc3ccccc3N(CC(=O)Nc3ccccc3F)C(=O)C2)cc1C | inconclusive: 11.6 µM [cytotoxic, single point] | –
O=C(Cc1c(Cl)cccc1Cl)OCC(=O)c1ccc[nH]1 | inconclusive: 29.1 µM [cytotoxic, single point] | –
CCn1c(C(=O)N2CCC(C(=O)N3CCN(c4cc(C)ccc4C)CC3)CC2)cc2sccc21 | – | inactive: -2.82%
COc1ccc(C(C)(NC(C)=O)c2nc(-c3cnc4ccccc4c3)cs2)cc1 (stereo not given) | – | inactive: 1.68%
Cc1ccc(SCCNC(=S)Nc2cc(C)ccc2C)cc1 | inconclusive: 25.9 µM [cytotoxic, single point] | –
COc1ccc(CNC(=O)c2ccc3nc(CCc4ccccc4)oc3c2)cc1OC | inconclusive: 18.4 µM [cytotoxic, single point] | –
CCOC(=O)c1c(NC(=O)Cn2nc([N+](=O)[O-])c(Br)c2C)sc2c1CCC(C)C2 (stereo not given) | inconclusive: 2.59 µM [cytotoxic, full curve, poor fit] | –

SMILES | Potency | activity change, negative = cytotoxicity
CCCCCN(C(=O)CCC(=O)OCC(=O)N(C)Cc1ccc(C)cc1)c1c(N)n(CCCC)c(=O)[nH]c1=O | inconclusive: 16.4 µM [rising, single point] | –
Oc1ccc(Br)cc1-c1cc(-c2ccc(Cl)cc2)n[nH]1 | active: 10.3 µM | –
CCn1c(C)nc2cc(C(=O)N/N=C/c3cccc(OC)c3O)ccc21 | inconclusive: 0.461 µM [cytotoxic, full curve] | –
CNC(=O)c1cc2cc(Cl)cc(OC)c2oc1=O | inconclusive: 0.0082 µM [rising, full curve] | –
CN(C)c1ccc(N=Cc2ccncc2)cc1 | – | inactive: 0%
CC(=O)Nc1ccc(S(=O)(=O)N2CCN(CCC#N)CC2)cc1 | – | inactive: 0%
Cn1cccc1CC(=O)N/N=C/C=C/c1ccco1 | – | inactive: -5.49%
CC(=O)N1CCc2cc(S(=O)(=O)NC(CC(C)C)C(=O)Nc3ccc(C(C)C)cc3)ccc21 (stereo not given) | – | inactive: 0%
CC(C)(C)NC(=O)C(c1ccco1)N(Cc1ccc2c(c1)OCO2)C(=O)c1snc(C(N)=O)c1N (stereo not given) | – | inactive: -5.13%
COc1ccc(-c2noc(C3CCCN(S(=O)(=O)c4cccc(Cl)c4)C3)n2)cc1OC (stereo not given) | active: 5.17 µM | –
C=CCOc1ccc(Br)cc1/C=C1/SC(=Nc2ccc(C(=O)O)cc2)NC1=O | – | inactive: 24.6%
COc1ccc([C@H]2C[C@@H](O)[C@H](n3cc(C4CC4)nn3)CN2Cc2cccs2)cc1 | inconclusive: 10.3 µM [cytotoxic, partial curve] | –
CCOc1ccccc1N1C(=O)CC(Sc2ccccc2N)C1=O (stereo not given) | inconclusive: 13 µM [cytotoxic, partial curve] | –
Cc1nn(-c2ccccc2)c(N)c1N=Nc1ccccc1 | inconclusive: 20.6 µM [cytotoxic, single point] | –
O=C(CN1CCC(O)(c2cccc(F)c2)CC1)NCCc1c[nH]c2ccccc12 | inconclusive: 23.1 µM [cytotoxic, partial curve] | –
Cc1ccc(NC(=O)C2CC(=O)N(Cc3ccco3)C2)cc1 (stereo not given) | – | inactive: 3.97%
CCCCCCC1(C)NC(=S)N(c2ccccc2)N1 (stereo not given) | – | inactive: 4.84%
Cc1cc(-c2ccc(C)c(S(=O)(=O)N3CCC(C)CC3)c2)on1 | inconclusive: 29.1 µM [cytotoxic, single point] | –
COc1ccc(N(CC(=O)NC2CCS(=O)(=O)C2)S(=O)(=O)c2cc(C)ccc2C)cc1 (stereo not given) | – | inactive: -17.7%
O=C(CSc1ccccn1)N1CCN(c2cccc(Cl)c2)CC1 | inconclusive: 14.6 µM [cytotoxic, single point] | –
O=C(NC(=S)NCCCN1CCOCC1)c1ccco1 | inconclusive: 29.1 µM [rising, single point] | –
O=C(Nc1ccc(Oc2ccc(NC(=O)Nc3ccc([N+](=O)[O-])cc3)cc2)cc1)Nc1ccc([N+](=O)[O-])cc1 | inconclusive: 29.1 µM [cytotoxic, single point] | –
